Test results as given in article PMC10039029.

Chains of the proteins cited; added tags and fusions are not shown.
UniProt Q7TSC1: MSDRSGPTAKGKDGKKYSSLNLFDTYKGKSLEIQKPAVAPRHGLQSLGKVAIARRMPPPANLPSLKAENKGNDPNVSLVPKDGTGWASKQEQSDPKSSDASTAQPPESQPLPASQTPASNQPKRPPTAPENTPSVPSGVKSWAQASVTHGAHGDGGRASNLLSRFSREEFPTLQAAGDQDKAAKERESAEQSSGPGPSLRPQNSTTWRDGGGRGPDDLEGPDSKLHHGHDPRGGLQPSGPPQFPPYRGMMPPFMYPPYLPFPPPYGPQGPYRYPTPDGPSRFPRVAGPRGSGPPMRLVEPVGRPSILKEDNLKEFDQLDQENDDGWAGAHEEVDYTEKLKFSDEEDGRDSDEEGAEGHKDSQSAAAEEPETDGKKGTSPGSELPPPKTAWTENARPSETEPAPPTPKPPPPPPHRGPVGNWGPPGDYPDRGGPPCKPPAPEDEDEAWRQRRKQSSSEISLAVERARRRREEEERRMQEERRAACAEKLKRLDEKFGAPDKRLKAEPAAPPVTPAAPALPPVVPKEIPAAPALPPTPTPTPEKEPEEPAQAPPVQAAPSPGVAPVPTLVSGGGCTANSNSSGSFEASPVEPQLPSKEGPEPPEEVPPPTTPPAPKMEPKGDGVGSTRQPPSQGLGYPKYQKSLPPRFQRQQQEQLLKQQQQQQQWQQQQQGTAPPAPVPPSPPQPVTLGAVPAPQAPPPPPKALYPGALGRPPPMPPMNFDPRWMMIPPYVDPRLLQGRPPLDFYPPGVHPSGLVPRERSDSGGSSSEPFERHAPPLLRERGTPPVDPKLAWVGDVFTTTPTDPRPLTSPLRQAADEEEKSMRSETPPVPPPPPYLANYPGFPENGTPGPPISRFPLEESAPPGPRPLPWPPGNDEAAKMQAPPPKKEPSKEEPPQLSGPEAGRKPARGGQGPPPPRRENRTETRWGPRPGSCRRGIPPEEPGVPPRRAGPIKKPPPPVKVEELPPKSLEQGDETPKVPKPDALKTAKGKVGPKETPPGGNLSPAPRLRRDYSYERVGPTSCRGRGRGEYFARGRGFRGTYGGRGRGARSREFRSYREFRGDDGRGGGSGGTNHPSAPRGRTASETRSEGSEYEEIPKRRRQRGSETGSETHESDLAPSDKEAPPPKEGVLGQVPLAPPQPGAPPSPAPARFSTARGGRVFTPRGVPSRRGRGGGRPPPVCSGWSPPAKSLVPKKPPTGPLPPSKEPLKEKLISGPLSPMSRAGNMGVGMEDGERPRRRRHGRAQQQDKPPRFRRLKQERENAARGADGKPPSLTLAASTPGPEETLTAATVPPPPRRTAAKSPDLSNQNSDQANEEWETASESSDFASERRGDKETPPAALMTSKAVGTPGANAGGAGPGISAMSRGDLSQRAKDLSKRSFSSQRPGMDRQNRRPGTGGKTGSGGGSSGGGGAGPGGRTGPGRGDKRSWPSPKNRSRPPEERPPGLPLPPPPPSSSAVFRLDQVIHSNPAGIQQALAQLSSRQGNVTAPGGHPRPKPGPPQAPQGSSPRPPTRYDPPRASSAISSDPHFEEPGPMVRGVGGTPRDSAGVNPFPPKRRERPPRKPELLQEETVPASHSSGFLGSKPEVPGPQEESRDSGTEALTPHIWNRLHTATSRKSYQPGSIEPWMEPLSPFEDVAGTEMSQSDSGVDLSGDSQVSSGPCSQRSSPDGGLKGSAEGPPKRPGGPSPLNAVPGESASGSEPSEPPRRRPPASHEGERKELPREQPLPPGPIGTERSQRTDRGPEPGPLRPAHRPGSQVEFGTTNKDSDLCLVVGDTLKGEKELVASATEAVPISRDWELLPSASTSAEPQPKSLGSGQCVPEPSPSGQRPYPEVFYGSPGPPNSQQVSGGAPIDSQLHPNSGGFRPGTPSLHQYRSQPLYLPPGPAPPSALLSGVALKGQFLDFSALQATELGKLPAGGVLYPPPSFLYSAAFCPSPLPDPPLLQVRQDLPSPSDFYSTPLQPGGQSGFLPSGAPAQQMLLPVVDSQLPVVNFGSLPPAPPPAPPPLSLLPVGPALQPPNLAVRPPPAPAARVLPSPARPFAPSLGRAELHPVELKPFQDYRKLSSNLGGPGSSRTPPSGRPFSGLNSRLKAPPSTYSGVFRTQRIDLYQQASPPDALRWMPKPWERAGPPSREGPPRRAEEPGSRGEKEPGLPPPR
UniProt Q61584: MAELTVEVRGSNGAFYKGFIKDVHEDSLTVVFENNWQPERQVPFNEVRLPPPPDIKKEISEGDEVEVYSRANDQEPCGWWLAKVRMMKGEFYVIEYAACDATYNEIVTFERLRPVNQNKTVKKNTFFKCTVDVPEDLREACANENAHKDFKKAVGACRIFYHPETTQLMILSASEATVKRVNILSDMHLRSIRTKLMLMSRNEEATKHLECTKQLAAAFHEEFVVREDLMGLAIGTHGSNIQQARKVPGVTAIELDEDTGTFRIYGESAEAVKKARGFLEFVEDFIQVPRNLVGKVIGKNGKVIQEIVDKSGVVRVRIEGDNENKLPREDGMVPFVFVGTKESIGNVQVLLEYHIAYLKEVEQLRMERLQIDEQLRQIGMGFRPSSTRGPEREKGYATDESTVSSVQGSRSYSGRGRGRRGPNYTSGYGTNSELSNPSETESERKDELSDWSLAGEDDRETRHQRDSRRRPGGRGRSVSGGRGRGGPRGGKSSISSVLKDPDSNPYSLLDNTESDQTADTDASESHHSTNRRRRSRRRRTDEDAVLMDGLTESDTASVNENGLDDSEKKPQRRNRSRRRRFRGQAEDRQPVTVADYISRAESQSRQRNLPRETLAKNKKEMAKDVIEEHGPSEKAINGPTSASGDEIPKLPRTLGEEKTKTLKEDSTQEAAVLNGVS

Target: Proline rich coiled-coil 2A (PRRC2A) with a 3×flag tag, from Prrc2a-flag knock-in mice (mouse) (UniProt Q7TSC1)
Assay: affinity purification with mass spectrometry; eight P20 Prrc2a-flag and wild-type testes; anti-Flag on Protein G magnetic beads; eluted with 0.2 mg/mL Flag peptide in NT2 buffer; SDS-PAGE, silver staining, in-gel trypsin digestion, LTQ Orbitrap Velos

binding: binds
Substance: fragile-X mental retardation autosomal 1 (FXR1) (from UniProt Q61584 1-677)

These are yes or no findings as the source states them, for the method shown. In cells and extracts the contact can be indirect. Here binding means that the protein was enriched with, or labelled near, the bait; the list need not be complete.
